Drawing on article doi:10.1101/2023.09.29.560101, this text covers binding for 1 substance.

By UniProt entry, the sequences of proteins in these tests, tags left out. Residues count along the entry.
UniProt Q8K0D5, residues 38-751: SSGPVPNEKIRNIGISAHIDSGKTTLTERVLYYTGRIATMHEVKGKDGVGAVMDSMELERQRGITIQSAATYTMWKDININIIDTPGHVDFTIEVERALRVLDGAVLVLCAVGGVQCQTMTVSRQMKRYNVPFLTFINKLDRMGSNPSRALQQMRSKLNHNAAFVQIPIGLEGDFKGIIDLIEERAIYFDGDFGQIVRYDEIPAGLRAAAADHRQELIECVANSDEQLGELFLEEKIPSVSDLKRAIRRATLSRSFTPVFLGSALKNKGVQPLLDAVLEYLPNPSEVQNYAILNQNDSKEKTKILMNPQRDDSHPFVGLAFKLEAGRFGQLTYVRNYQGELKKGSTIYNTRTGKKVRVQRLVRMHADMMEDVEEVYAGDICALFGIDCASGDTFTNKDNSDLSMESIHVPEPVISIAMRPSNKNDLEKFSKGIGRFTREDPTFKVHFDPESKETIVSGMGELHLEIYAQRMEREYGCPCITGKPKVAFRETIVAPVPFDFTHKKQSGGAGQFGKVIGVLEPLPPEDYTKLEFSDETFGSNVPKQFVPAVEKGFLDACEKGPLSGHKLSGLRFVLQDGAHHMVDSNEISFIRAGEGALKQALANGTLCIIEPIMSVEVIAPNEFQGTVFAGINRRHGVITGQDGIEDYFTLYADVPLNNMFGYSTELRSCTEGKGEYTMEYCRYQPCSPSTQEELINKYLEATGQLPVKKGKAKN
UniProt Q9JHS4, residues 57-634: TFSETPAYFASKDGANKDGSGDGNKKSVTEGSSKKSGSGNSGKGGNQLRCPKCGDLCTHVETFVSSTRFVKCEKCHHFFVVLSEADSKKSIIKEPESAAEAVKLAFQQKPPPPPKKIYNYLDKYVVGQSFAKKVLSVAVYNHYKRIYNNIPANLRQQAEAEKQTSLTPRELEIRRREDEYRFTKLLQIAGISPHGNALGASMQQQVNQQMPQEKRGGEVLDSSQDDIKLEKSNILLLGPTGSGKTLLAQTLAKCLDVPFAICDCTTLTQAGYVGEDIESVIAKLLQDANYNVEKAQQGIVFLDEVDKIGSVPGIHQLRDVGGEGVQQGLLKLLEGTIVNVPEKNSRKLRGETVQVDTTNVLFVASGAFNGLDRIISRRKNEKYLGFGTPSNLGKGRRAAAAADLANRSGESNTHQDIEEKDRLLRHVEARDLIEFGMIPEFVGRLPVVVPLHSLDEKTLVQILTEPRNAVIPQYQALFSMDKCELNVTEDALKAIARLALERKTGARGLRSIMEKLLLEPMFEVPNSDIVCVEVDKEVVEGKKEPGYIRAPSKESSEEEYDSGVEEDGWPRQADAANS

Results are given in words; binding and its absence hold for the method and conditions named. Binding seen in cells or lysates may run through a third protein. Some binding calls cover weakened binding; strength is not graded here.

For the assay, the target named is GFM1, translation elongation factor G 1, mitochondrial (mouse, endogenous) (mouse (endogenous in mouse liver)) (UniProt Q8K0D5). The assay can be described thus: co-IP.

Take “CLPX, specificity component of Clp protease complex, AAA+ ATPase (mouse, endogenous) (from UniProt Q9JHS4 57-634)”: the binding entry was “binds”.
